Data on one sequence can be found in article PMC7861564.

The data set addresses T1, AtSSB (Agrobacterium tumefaciens strain C58) (UniProt Q8UF87).
T1 sequence: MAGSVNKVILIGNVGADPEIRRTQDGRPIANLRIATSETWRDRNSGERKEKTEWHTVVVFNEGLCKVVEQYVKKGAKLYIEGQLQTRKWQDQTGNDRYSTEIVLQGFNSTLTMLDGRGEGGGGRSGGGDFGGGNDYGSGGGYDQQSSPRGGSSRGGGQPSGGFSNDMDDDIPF
Put plainly: EMSA. As to conditions: 1 mM DTT, 2 mM CaCl2, 100 ug/mL BSA, 50 mM potassium glutamate; recombinant protein; protein details: N-terminal 6xHis (pET15b); single-stranded DNA.

Construct, isoform or probe ends are uncertain for at least one entry. At least one verdict rests on a figure or table, not on a statement of the authors. Protein sequences can lack the tags named with them.

Take “GGAAGCGATAAAACTCTGCAGGTTGGATACGCCAA [OGCB664]”: the binding result is “binds”.
